Measured values published in patent US20130274352A1, “Oral Drug Devices and Drug Formulations” (The Regents of the University of California, priority 2009, published 2013).

Tested on: Caco-2 cells
Assay: Overall potential (OP = EP − TP)
Format: cell-based, human

Row | SMILES | OP (single CPE, Conc. 0.01%) | concentration of maximum in OP (14 discrete concentrations, FIG. 2D) [%]
1 | CCCCCCCCCCCCCCCC(=O)OC(CC(=O)O)C[N+](C)(C)C.[Cl-] (centres unmarked) [PCC, Palmitoyl carnitine chloride] | 0.57 | –
2 | CCCCCCCC/C=C\CCCCCCCC(=O)[O-].[Na+] [SOA, Sodium oleate] | – | 0.15
